# Data taken from PubChem BioAssay AID2551 (National Center for Advancing Translational Sciences (NCATS), 2010).
# The chains behind the UniProt entries cited, without tags or fusion partners. Where a name states a change or a piece, a line headed by the entry shows the natural chain unless it says otherwise.
# UniProt P51450: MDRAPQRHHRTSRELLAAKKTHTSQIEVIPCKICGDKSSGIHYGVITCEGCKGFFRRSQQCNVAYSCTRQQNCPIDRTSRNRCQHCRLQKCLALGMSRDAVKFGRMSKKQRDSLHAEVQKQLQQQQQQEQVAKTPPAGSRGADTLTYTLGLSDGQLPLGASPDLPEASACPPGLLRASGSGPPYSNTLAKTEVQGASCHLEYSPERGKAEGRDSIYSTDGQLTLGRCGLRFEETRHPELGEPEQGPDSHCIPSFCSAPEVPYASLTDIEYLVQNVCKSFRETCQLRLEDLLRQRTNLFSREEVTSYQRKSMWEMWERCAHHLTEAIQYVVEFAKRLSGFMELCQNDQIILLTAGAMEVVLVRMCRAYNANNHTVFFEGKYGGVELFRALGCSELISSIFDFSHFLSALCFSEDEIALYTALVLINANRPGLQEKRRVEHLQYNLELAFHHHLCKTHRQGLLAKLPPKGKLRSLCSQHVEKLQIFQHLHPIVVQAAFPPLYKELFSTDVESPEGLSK
# Hit rate of the full screen: of about 310,000 compounds, about 17,000 (5.5%) were called active. The shares of active, inactive and inconclusive entries below differ from those in the screen. The call rests on the fitted dose curve; in most records, active means well fitted inhibition curve with a large enough effect; inconclusive means small, poorly fitted or top-dose-only effect, or effect the other way; inactive means no such curve, though single readings can be large or run the other way. Potencies beside an inconclusive call are fits to weak or partial responses and may not hold up.
# Target: Nuclear receptor ROR-gamma (Mus musculus) (UniProt P51450)
# Test: qHTS for inhibitors of ROR gamma transcriptional activity; further: nearly all actives have a fitted effect of over 60% in size
# Conditions: Drosophila S2 Gal4-RORgamma UAS-luciferase reporter, 20 h; activity change, negative = inhibition: at 53.6 µM (top of the series)
# Method in brief: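 In this cell-based reporter format, copper sulfate (700 uM final) drives Gal4–ROR gamma fusion expression from a metallothionein promoter in Drosophila Schneider cells; compounds preincubated 1 hr, reporter read after 20 hr at ambient temperature.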
# On the % scale 0 is the no-effect control and ±100 the full control effect; potency means the concentration at half of the fitted maximal effect.
SMILES,Potency,"activity change, negative = inhibition"
CCOc1cccc(NC(=O)/C(C#N)=C\c2cn(CC(=O)O)c3ccccc23)c1,"inconclusive: 20 µM [activator, single point]",
C/C(=N\N=C1/NC(=O)C(C)S1)c1ccc([N+](=O)[O-])cc1 (stereo unspecified),"inconclusive: 12.6 µM [inhibitor, single point]",
C=CCn1c(CCNC(=O)c2ccc(Cl)c(Cl)c2)nnc1SCCOc1ccc(OC)cc1,"inconclusive: 12.6 µM [activator, partial curve]",
CCOc1ccc(/C=N/OCC(=O)NCc2ccc3c(c2)OCO3)cc1OC,"inconclusive: 14.1 µM [activator, partial curve]",
Cc1ccc(OCC(=O)Nc2ccccc2-c2ccccc2NC(=O)COc2ccc(C)cc2)cc1,"inconclusive: 15.8 µM [activator, single point]",
Oc1ccc(/C=N/Nc2ccnc3cc(Cl)ccc23)cc1O,"inconclusive: 35.5 µM [inhibitor, single point]",
COc1ccc(C(=O)Nc2ccc([N+](=O)[O-])cn2)cc1OC,"inconclusive: 11.2 µM [activator, single point]",
CC1OC(O[C@H]2CC[C@]3(C)C4C=C[C@]56OC[C@@]7(CC[C@@H](C)[C@H](C)C75)[C@H](O)C[C@@]6(C)[C@]4(C)CC[C@H]3C2(C)C)C(OC2OC(CO)C(O)C(O)C2OC2OCC(O)C(O)C2O)C(O)C1O (stereo partly specified),active: 1.78 µM,
COc1ccccc1CNS(=O)(=O)c1c(C)[nH]c(C)c1C(=O)N1CCCCC1,inactive,
Cc1ccccc1C(=O)NC(=S)Nc1ccc(N2CCN(C(=O)c3ccccc3)CC2)cc1,active: 22.4 µM,
COc1n[nH]c(C(=O)Nc2cc(F)ccc2C)c1[N+](=O)[O-],"inconclusive: 15.8 µM [inhibitor, partial curve, poor fit]",
O=C(Nc1ccncc1)c1ccc(-c2ccccc2)cc1,active: 7.94 µM,
O=C(NCCc1ccc(Cl)cc1)Nc1cccc(Cl)c1,"inconclusive: 12.6 µM [activator, partial curve]",
O=C(NCc1cccs1)c1noc2c1CCCCC2,"inconclusive: 12.6 µM [activator, partial curve]",
O=C(Nc1ccccc1F)NC1CCCc2ccccc21 (stereo unspecified),inactive,
Cc1[nH]c(=O)[nH]c(=O)c1NC(=O)c1ccc(OC(C)C)cc1,inactive,
CCC(C)(C)NC(=O)Cc1ccc(C)cc1,"inconclusive: 11.2 µM [inhibitor, partial curve]",
CO[C@@H]1COC(=O)[C@H]2CCCN2C(=O)[C@@H](C)COC(=O)[C@H](COCc2ccccc2)NC(=O)C/C=C\[C@H]1C,,inactive: -1.86% [at 10 µM]
Cn1c(SCC(=O)N/N=C/c2ccc([N+](=O)[O-])s2)nnc1-c1ccc(Cl)cc1,"inconclusive: 15.8 µM [inhibitor, single point]",
Cc1cc(C)n(-c2cc(N3CCN(C(=O)c4ccc(C(C)(C)C)cc4)CC3)ccc2[N+](=O)[O-])n1,"inconclusive: 12.6 µM [activator, single point]",
Cc1cccc(NC(=S)N2CCN(c3cc(C)ccc3C)CC2)c1,active: 3.98 µM,
COC(=O)c1ccc(NC(=O)c2ccc(C)cc2)o1,"inconclusive: 11.2 µM [activator, partial curve]",
O=Cc1c(NC2CCCCC2)c2ccccc2[nH]c1=O,"inconclusive: 12.6 µM [activator, single point]",

SMILES,Potency,"activity change, negative = inhibition"
CN(Cc1cnn(C)c1)Cc1nc(-c2ccc(Cl)cc2)no1,"inconclusive: 7.94 µM [activator, partial curve]",
CCc1c(C)sc(NC(=O)c2cc(-c3ccco3)on2)c1C#N,"inconclusive: 11.2 µM [inhibitor, partial curve, poor fit]",
Cn1c(/C=C/c2ccc(Cl)cc2)nc2ccccc2c1=O,"inconclusive: 1.58 µM [activator, partial curve, poor fit]",
CCCCCCCc1c(C#N)c(N)[nH]c(=S)c1C#N,active: 8.91 µM,
COc1cccc(-c2nnc3sc(C4CCCCC4)nn23)c1,inactive,
COc1ccc(N2CCN(c3oc(-c4ccc(OC)c(OC)c4)nc3C#N)CC2)cc1,inactive,
O=C(Nc1nnc(-c2cccnc2)o1)c1ccccc1Cl,active: 8.91 µM,
Cc1ccc(C(=O)Nc2ccc3c(c2)OCCO3)c(C)c1,active: 3.16 µM,
O=C(NNC(=S)NC(=O)c1ccccc1)c1ccc(O)cc1,"inconclusive: 25.1 µM [inhibitor, single point]",
CNC(=O)COc1coc(CN2CCN(c3ccccc3F)CC2)cc1=O,inactive,
O=C(Nc1nc(-c2ccc3c(c2)OCO3)cs1)c1ccncc1,"inconclusive: 2.82 µM [activator, full curve]",
C1=C(c2ccccc2)CCN(c2nc3ccccc3n3cnnc23)C1,"inconclusive: 15.8 µM [inhibitor, single point]",
CC1CC(C)CN(CC(O)COCc2ccccc2F)C1 (stereo unspecified),inactive,
COc1ccc(C(=O)O)nc1C,"inconclusive: 10 µM [inhibitor, partial curve]",
N#C/C(=N\O)c1nc2ccccc2s1,inactive,
Cc1cc(NC(=O)c2c([N+](=O)[O-])c(C)nn2C)no1,"inconclusive: 35.5 µM [inhibitor, single point]",
O=C(c1ccco1)N1CCN(C(=O)c2ccccc2NS(=O)(=O)c2ccc(F)cc2)CC1,inactive,
COC(=O)c1sc2nc(-c3ccccc3)nc(N3CCN(C)CC3)c2c1C,inactive,
CC1=NCCN1S(=O)(=O)c1cc([N+](=O)[O-])ccc1Cl,inactive,
Cc1ccc(/C=N/NC(=O)CN(Cc2ccccc2)S(=O)(=O)c2ccc3c(c2)OCCO3)cc1,inactive,
O=C(Nn1c(SCc2ccccc2F)nc2ccsc2c1=O)c1ccccc1,"inconclusive: 5.01 µM [activator, partial curve, poor fit]",
CC1=NNC(=O)/C1=C\c1cn(-c2ccccc2)nc1-c1ccc(Cl)cc1,active: 5.01 µM,
CN(Cc1nc2ccccc2c(=O)[nH]1)Cc1nc2ccsc2c(=O)[nH]1,active: 0.398 µM,

# Laid out differently: entries from further up
SMILES	Potency	activity change, negative = inhibition
Cn1c(/C=C/c2ccc(Cl)cc2)nc2ccccc2c1=O	inconclusive: 1.58 µM [activator, partial curve, poor fit]	
O=C(c1ccco1)N1CCN(C(=O)c2ccccc2NS(=O)(=O)c2ccc(F)cc2)CC1	inactive	
